## Assay results

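Genome-wide siRNA knockdown in TC32 Ewing sarcoma cells, comparing luciferase light from an NR0B1-promoter reporter with a CMV-promoter reporter 48 hours after transfection.
Each siRNA was applied at 20 nM.
A z-score of the log NR0B1-over-CMV signal, less the median of siRNAs with the same seed; more negative means a stronger specific loss of the NR0B1 reporter.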

The strongest results of the screen are mostly left out here.
Sequences are the guide (antisense) strand, without overhang.

strand	gene	seed-corrected z-score
UAUCAUCCAACGUGUAGGC	MAOB	0.6551
UACUCGUUGAUGAUCACCA	LRRTM1	-0.2865
AAUAGGAUGAGUACCGCUG	CXorf21	-0.2956
UGUACAAGUAUCUAAAACC	DCDC1	-0.2054
UAUGGUCUCAAGGUCUCGG	XPC	-0.2661
UAGAUGCCGAUGUAGGUGG	SLC6A9	-0.9686
UCCCUUCUAAAGACACGCC	SH3YL1	0.1632
UUUCGACUAAAGACCUUAC	ZNF347	0.5059
UUGUAGAAGGUGUCACGGC	CHCHD6	1.632
AUUGGAUCUUGCAUGAACU	DDX39B	0.8938
UUCACUUGCCUGUAAAUGC	SRGAP2	-1.62
UAUGGUGUCAAAGUGAAUG	HSD17B7	1.024
AAUAAUUACAGCGUGGUUU	TMEM42	0.4023
UUUUCUUGAAUCUUUUUCC	TRIM43	0.3523
UAUCCUCACAUUCCAAUUC	ZNF622	-0.2926
AAUCCAAUAAAGUAAGGCC	PDGFRA	-0.173
UUAGCCGUAAGGAUUGCCG	DSG4	0.2307
AAUAAUAGCAUUAUGACCG	PLRG1	-0.7546
AUAGCUUAGAGAAGUCUUU	GATSL3	3.566
ACUGGAUUCUCUGUGAUCU	ICOSLG	1.626
UAUCACUAAAUAUAACUCC	ABCA10	0.08678
UUCACUUCGACGUGAAGAU	BTN3A2	0.1474
UGAUGAUACAGACAAAUGG	OR1L3	-1.473
UGAUGAACAAUCGUCUCCC	XPA	-0.3182
UAGCGUGUGAUGAACUUGU	STK25	-0.01363
UUAGUAUCAAAAACAGUCC	FKBP3	0.5671
UUUCUUAUAUCCAAUCACC	SLC12A1	-0.5975
UUCGUAUUGUACUUUGUCC	F13B	0.1671
UUUAGAAACGGCUCUAGGU	CD14	-0.1211
UACUUCUCAGCAAUGACCU	FMNL1	0.8999
AAACUAUCCGUGCUAAAGG	ACAT2	1.249
UCUGGGAUCUGGUCCAUGC	SH2D3C	0.04216
UGACUAUUAAACGGGCUUG	KIF14	-1.172
ACACGUAUCAACACCAUAC	CARTPT	0.07044
UUCUUUUUCGCUUUCCAUC	THRA	-0.8829
UACAGUGUGGAGAUAAGCC	GGNBP2	0.0133
AUUUUUAUUGGAUGGUGGC	PRM1	0.2683
UGUUUGCUGUCAUUGUUCC	FOXP4	0.0466
AUAUGUAUUGGAUCCCACG	IAPP	0.149
UCGGCGAUAAUCUGGGUCA	POLR2I	-1.218
UAGUCAAAGACAUAACCGC	RALYL	-0.4573
UGGUUCAUAACCUUGCUCG	AFM	-0.1915
UCAGUUCGAAUCCUCAUCC	ZNF37BP	1.227
UCAGGAUCAACUUCGUAAC	DOPEY1	0.6714
UUGGAGGACCGUGUCAUGG	ICAM2	0.01627
UGCACGAAAAUGGAUUUCC	SFMBT2	0.5163
UCAGGGUGCACGUGAUGUC	C15orf52	-1.048
UGCUUGACCACGUUGGGAG	PAX1	-0.3966
UUCUUAAGAGGUACCAGGC	TIAM2	0.002257
UAGGUUUGUAAAGAGUUGC	PCDHGC3	-1.061
AUAUUUUUGGGAGCACUUC	LOC145845	0.2634
UUCGGGUCAACUGGUAGAC	SMAD3	-1.68
UUAUGUGCAAUAAGGGUAG	ZNF56	-1.842
UUGCUUAGCAAAGUAAGGG	GNPNAT1	-0.138
UGAGCUCCGAGAUUUCAUU	KRT71	1.537
UGUAGGUCAGGAUGGGCUC	KCNC4	0.7465
UCUCCUAUGAUUGCACAGG	ARL4A	0.5808
UCUCGUACUAUGGAGACAC	ELP3	0.7995
UCAAUGAUUUCUAGGGUGG	LOC646730	-0.5496
ACUCUUAUAGUAGAUGUUC	GNMT	0.6517
UUAAAGUACGCCUAUUUCU	FGFBP3	0.07052
UACCUUUCCAACCAGCGUG	LACC1	1.346
UGGAUUUAAGCGGACAGCC	IFIT1	-0.2894
UAUUUUGUAGGUAUGGUGA	WFDC5	-0.6214
UCCUGGACGAAGAACAUUC	PAXBP1	-0.9683
UUCUCUAUUGGAAUCAUGC	ACOT4	-0.06422
UAAAUAACACUGGCAGGUG	CRIP2	-0.5867
AACCUUACAUUCCGGAUCC	MOG	0.7269
UCUAGUAAGUGGUUGCUGC	FOXP1	-0.1408
AAGCUUAUCAAACUCCUGC	TRIM35	0.1398
AAACGGUAGAUGAUGGAGC	OTOP2	-0.0098
UUGAGCAAAGGCACCCACC	LOC729296	0.2067
UUAGGAAGACGCCCUGUCC	NFIC	-0.8637
AGGUGUACAGACAUGUUCU	RPS11P5	1.108
UCUUCGUCCUCUUCGCUGG	BHMG1	-1.883
AGUGGAUUUUGAGUUGACG	GCNT6	-0.5418
UUCGUGUACAGAUAACACU	FABP12	1.118
UGUUAAACCAGGGUUCAGG	MAML1	0.9233
AUUGGAAAGAUGUCACACG	KIRREL2	0.09349
UAAUGGGUCGUUGGUAUCU	KCNJ5	0.5047
UGUUAUGUAUCUUCCAUCC	PREX2	-0.2179
AACGCUGACAGAAGUCCCG	SHISA8	-0.03655
UAGCUGACCACGUAGAGGU	DPP9	-0.08315
UAUCGUGUAAUAGGUAAAC	FAF2	-0.1135
UGUUAAACAAACCAUUCUG	GDF9	-0.831

Some entries from above, unchanged:

strand	gene	seed-corrected z-score
UAUGGUGUCAAAGUGAAUG	HSD17B7	1.024
AGGUGUACAGACAUGUUCU	RPS11P5	1.108
UGGUUCAUAACCUUGCUCG	AFM	-0.1915
UCAGUUCGAAUCCUCAUCC	ZNF37BP	1.227
UGUUAAACAAACCAUUCUG	GDF9	-0.831
UUAGUAUCAAAAACAGUCC	FKBP3	0.5671
UUCUUAAGAGGUACCAGGC	TIAM2	0.002257
AAUCCAAUAAAGUAAGGCC	PDGFRA	-0.173
UUCGGGUCAACUGGUAGAC	SMAD3	-1.68
ACACGUAUCAACACCAUAC	CARTPT	0.07044
UAAUGGGUCGUUGGUAUCU	KCNJ5	0.5047

Data taken from PubChem BioAssay AID1159506, deposited by NCATS (2015).